The exact form of at least one protein or probe is not confirmed. Protein sequences can lack the tags named with them.
Molecular target: T1, GST-Pus4 (Saccharomyces cerevisiae) (UniProt P48567)
T1 sequence (looked up, limits assumed): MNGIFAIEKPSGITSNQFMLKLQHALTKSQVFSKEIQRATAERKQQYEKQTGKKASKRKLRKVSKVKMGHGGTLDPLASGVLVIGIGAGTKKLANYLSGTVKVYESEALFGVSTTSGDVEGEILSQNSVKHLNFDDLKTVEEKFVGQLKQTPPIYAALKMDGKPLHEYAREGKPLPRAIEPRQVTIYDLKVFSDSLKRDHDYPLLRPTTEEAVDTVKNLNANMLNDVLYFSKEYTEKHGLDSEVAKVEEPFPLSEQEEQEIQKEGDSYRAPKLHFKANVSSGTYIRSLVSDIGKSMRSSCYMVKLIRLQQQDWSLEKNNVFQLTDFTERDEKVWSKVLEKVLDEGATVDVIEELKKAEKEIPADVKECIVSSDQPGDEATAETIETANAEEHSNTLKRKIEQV
Experiment: BLI
Settings: BLI: 50 mM Tris-HCl pH 7.5, 100 mM KCl, 0.02% Tween-20, 30 °C, recombinant protein, label: 5' biotin

GCUUCAGUAGCUCAGUAGGAAGAGCGUCAGUCUCAUAAUCUGAAGGUCGAGAGUUCGAACCUCCCCUGGAGCACCA [Ψ55 tRNA eMet(CAU), no fluorophores]
Kd (approximate limit from koff < 0.01 s-1, pseudouridine at position 55 (second U of GAGAGUUCGAA)): < 130 nM

GCUUCAGUAGCUCAGUAGGAAGAGCGUCAGUCUCAUAAUCUGAAGGUCGAGAGUUCGAACCUCCCCUGGAGCACCA [U55 tRNA eMet(CAU), no fluorophores]
Kd (approximate limit from koff < 0.01 s-1, kon 5.84e4 M-1s-1): < 130 nM

GCUUCUAUGGCCAAGUUGGUAAGGCGCCACACUAGUAAUGUGGAGAUCAUCGGUUCAAAUCCGAUUGGAAGCACCA [Ψ55 tRNA Thr(AGU), Cy3/Cy5]
Kd (approximate limit from koff < 0.01 s-1, kon 1.36e5 M-1s-1, pseudouridine at position 55 (second U of CGGUUCAAA), Cy3 at U4 C5, Cy5 at U41 C5): < 130 nM

GCUUCAGUAGCUCAGUAGGAAGAGCGUCAGUCUCAUAAUCUGAAGGUCGAGAGUUCGAACCUCCCCUGGAGCACCA [Ψ55 tRNA eMet(CAU), Cy3/Cy5]
Kd (approximate limit from koff < 0.01 s-1, kon 1.12e5 M-1s-1, pseudouridine at position 55 (second U of GAGAGUUCGAA), Cy3 at U4 C5, Cy5 at U41 C5): < 130 nM

GCUUCAGUAGCUCAGUAGGAAGAGCGUCAGUCUCAUAAUCUGAAGGUCGAGAGUUCGAACCUCCCCUGGAGCACCA [U55 tRNA eMet(CAU), Cy3/Cy5]
Kd (approximate limit from koff < 0.01 s-1, kon 1.00e5 M-1s-1 (bi-exponential fit), Cy3 at U4 C5, Cy5 at U41 C5): < 130 nM

GCUUCUAUGGCCAAGUUGGUAAGGCGCCACACUAGUAAUGUGGAGAUCAUCGGUUCAAAUCCGAUUGGAAGCACCA [U55 tRNA Thr(AGU), Cy3/Cy5]
Kd (approximate limit from koff < 0.01 s-1, kon 1.36e5 M-1s-1 (bi-exponential fit), Cy3 at U4 C5, Cy5 at U41 C5): < 130 nM

Reference: article PMC13270999, “Chronology of tRNA structural dynamics prior to and during interaction with a pseudouridine synthase”
